Test results taken from the supplement of paper PMC10060354, “Discovery of a small molecule ligand of FRS2 that inhibits invasion and tumor growth” (Cellular Oncology, 2022).

By UniProt entry, the sequences of proteins in these tests, tags left out. Where a name states a change or a piece, a line headed by the entry shows the natural chain unless it says otherwise.
UniProt Q96CU9: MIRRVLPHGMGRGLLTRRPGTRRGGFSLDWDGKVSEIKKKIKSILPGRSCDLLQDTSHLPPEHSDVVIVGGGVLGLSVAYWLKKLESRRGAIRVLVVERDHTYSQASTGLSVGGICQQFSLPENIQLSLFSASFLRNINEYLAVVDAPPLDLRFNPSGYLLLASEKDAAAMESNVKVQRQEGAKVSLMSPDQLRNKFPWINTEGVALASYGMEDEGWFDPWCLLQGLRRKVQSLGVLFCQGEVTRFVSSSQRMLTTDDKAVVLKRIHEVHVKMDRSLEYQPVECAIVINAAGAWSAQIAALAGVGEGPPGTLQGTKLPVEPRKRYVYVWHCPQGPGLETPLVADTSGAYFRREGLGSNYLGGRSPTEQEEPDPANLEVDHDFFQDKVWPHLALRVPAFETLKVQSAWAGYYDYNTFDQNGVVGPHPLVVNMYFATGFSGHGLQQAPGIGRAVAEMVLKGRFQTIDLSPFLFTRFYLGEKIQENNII
UniProt Q16643: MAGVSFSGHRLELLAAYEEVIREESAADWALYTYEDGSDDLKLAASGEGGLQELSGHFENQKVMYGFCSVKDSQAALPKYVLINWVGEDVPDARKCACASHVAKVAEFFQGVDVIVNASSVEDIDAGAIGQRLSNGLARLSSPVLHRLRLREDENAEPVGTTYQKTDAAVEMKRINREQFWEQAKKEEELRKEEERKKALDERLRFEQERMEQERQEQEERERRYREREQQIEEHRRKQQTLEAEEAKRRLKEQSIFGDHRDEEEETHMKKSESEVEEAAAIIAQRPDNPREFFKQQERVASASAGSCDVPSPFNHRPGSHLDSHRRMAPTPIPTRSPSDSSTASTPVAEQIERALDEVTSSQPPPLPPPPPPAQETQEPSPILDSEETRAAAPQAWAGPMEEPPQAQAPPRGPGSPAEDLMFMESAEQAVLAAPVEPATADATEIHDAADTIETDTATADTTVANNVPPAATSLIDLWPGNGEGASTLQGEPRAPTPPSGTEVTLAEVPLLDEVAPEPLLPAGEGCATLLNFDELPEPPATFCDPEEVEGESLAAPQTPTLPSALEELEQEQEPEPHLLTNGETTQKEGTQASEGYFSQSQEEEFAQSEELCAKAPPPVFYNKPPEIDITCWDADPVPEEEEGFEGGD
UniProt Q8N573: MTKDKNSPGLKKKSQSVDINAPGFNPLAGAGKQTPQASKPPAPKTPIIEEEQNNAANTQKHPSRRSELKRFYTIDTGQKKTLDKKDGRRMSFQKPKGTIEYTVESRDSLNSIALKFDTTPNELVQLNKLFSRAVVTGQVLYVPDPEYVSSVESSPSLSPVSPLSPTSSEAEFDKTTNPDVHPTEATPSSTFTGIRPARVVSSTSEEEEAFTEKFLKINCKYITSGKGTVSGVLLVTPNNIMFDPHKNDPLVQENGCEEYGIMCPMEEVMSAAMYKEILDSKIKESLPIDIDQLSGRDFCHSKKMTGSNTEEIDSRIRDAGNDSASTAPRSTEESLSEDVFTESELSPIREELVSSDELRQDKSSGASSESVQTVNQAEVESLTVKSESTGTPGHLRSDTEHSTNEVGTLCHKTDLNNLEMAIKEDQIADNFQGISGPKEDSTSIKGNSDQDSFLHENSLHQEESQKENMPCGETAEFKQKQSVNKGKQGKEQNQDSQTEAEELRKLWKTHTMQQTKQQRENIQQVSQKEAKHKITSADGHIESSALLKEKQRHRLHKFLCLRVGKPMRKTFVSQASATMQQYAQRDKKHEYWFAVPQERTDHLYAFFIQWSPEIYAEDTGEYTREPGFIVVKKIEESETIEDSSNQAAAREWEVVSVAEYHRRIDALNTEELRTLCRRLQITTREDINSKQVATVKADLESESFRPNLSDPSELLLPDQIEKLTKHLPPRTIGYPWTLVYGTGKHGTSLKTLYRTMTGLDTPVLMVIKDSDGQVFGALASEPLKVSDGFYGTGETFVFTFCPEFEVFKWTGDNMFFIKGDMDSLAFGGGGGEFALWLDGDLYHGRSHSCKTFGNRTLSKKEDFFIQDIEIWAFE
UniProt P38435: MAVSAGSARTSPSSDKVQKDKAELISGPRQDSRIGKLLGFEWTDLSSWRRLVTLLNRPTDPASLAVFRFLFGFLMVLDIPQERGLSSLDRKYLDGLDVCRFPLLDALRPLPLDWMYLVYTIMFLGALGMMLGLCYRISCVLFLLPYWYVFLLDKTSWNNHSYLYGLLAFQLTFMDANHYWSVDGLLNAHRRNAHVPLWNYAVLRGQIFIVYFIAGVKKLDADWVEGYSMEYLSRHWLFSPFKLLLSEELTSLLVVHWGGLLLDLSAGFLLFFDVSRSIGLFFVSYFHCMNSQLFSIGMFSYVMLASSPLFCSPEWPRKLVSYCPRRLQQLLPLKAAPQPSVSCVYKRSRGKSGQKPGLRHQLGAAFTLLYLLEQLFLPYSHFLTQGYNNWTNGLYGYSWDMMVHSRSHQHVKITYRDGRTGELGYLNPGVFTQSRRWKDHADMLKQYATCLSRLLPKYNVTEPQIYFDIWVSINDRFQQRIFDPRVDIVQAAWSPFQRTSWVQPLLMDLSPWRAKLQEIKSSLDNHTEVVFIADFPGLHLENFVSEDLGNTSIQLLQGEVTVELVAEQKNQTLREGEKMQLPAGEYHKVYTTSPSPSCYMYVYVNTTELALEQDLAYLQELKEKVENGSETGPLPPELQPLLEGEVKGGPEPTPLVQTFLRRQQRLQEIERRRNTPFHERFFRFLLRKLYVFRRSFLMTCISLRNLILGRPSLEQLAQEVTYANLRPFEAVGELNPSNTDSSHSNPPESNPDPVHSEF
UniProt P40306: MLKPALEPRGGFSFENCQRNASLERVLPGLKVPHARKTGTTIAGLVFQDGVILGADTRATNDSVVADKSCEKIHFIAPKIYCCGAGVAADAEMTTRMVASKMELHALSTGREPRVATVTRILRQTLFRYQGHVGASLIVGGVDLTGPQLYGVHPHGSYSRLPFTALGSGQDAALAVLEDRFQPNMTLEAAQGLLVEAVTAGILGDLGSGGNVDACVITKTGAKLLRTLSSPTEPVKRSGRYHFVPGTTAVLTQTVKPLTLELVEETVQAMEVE
UniProt P40925: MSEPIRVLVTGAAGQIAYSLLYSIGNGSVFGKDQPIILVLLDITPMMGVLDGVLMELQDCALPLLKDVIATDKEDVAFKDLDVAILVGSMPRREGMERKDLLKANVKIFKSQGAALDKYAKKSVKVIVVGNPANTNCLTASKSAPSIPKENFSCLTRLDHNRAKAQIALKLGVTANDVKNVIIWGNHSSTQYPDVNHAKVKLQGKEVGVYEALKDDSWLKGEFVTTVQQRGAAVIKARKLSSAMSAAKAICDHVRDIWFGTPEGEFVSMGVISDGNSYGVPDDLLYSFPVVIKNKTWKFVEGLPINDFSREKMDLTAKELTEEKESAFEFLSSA
UniProt Q9H857: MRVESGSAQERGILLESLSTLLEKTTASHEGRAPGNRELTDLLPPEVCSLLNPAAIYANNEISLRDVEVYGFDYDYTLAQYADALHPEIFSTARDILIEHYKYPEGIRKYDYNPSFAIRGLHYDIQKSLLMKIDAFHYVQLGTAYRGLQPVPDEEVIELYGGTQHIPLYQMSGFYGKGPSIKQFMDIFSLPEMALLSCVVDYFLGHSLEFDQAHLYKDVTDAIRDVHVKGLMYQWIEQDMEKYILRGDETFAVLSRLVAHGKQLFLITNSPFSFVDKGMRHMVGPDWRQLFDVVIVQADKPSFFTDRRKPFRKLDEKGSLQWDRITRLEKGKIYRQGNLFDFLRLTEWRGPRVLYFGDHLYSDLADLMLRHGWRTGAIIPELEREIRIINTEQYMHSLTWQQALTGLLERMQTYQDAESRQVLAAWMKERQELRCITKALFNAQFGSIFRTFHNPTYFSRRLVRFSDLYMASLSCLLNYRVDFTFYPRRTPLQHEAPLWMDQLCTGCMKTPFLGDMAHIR
UniProt Q13045: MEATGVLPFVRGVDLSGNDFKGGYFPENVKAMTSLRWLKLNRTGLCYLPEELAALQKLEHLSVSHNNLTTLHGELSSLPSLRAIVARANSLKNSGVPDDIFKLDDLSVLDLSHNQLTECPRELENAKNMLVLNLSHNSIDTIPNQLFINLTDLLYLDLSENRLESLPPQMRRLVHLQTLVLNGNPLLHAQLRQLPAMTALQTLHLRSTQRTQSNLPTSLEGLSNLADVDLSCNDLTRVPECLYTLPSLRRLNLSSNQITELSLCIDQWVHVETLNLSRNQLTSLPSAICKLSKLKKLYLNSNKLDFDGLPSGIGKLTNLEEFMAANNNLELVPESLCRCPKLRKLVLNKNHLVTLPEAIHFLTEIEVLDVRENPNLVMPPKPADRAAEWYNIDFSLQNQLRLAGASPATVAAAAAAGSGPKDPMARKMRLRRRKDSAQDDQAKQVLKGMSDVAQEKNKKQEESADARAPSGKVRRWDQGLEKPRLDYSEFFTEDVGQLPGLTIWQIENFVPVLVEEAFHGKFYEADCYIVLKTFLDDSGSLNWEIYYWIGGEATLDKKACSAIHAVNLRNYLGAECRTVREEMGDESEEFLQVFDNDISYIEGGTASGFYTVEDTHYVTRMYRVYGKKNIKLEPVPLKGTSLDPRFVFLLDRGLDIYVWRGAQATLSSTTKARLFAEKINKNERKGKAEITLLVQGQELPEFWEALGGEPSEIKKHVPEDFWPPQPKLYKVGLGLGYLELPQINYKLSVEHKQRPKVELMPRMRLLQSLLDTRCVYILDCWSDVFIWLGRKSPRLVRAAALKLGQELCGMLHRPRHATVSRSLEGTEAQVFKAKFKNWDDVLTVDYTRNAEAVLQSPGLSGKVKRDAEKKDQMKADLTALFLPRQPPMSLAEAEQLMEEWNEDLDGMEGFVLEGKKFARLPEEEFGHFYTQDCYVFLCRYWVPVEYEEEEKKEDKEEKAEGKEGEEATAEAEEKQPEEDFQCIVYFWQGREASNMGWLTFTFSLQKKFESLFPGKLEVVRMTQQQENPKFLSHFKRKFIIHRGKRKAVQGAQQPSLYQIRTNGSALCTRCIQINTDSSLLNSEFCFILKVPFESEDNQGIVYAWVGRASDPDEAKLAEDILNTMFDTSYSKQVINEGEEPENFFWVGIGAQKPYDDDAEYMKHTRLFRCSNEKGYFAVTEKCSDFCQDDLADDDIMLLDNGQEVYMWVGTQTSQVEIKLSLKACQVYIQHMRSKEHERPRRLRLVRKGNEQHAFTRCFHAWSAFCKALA
UniProt P07738: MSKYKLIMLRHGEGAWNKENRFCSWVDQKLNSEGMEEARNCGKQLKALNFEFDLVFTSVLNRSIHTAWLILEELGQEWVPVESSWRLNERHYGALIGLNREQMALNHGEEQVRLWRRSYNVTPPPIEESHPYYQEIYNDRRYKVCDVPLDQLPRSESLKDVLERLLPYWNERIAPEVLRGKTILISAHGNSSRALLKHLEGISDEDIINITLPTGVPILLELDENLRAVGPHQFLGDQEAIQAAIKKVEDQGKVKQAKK
UniProt P49005: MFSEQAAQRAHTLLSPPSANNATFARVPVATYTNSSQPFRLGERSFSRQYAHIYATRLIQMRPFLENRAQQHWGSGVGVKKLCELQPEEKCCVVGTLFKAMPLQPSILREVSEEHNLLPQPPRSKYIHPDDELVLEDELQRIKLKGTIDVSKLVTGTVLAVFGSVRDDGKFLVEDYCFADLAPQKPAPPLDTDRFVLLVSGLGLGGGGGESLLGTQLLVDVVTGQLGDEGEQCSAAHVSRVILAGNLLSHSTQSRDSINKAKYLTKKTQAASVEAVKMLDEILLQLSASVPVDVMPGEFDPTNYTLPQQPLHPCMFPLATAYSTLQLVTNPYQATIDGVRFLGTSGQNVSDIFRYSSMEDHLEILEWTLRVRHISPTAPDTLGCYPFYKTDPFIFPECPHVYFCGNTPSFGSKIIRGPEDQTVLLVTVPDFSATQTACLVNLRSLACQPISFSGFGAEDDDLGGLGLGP
UniProt Q8IVV7: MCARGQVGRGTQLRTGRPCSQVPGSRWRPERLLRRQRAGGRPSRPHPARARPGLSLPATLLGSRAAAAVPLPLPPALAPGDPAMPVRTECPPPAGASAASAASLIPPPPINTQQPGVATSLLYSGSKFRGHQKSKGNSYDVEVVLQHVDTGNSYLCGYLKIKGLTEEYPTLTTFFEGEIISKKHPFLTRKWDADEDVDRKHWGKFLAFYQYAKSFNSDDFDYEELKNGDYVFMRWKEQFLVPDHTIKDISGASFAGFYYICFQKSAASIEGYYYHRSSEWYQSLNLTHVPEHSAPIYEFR
UniProt Q6ZSR9: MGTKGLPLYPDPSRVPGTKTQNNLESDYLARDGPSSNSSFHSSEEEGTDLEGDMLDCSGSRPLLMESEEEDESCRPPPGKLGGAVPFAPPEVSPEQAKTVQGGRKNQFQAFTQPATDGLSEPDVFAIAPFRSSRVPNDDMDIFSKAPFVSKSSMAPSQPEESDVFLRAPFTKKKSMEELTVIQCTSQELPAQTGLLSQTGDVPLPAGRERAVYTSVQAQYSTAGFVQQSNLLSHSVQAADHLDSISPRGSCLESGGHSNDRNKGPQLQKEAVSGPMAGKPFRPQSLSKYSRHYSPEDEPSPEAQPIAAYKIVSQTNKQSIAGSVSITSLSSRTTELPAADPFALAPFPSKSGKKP

Compound: [O-][N+](C(C1=C(C(O)=C2)NC(C(C=C3)=CC=C3Cl)C4C1C=CC4)=C2Cl)=O
Experiment: melting temperature shift (compound 7 minus DMSO); higher = compound stabilises the protein
Details: 10 µM
Protocol: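 Thermal proteome profiling (TMT mass spectrometry) in intact DAOY medulloblastoma cells or DAOY lysates treated with 10 µM compound 7 or DMSO, heated at 10 temperatures from 40.5 to 73.8 °C for 3 min. Melting curves were fitted with the Bioconductor TPP package, and the melting point difference between compound and vehicle is reported per protein (single curve per condition).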

[1] = system: DAOY cell lysate, treatment time: 20 min, 4 °C
[2] = system: intact DAOY cells, treatment time: 90 min, 37 °C

Target	melting temperature shift [1] [°C]	melting temperature shift [2] [°C]
RTCA (UniProt O00442)	-0.59	-0.467
HTRA2 (UniProt O43464)	-0.836	-0.674
CWC22 (UniProt Q9HCG8)	-0.589	0.69
OVCA2 (UniProt Q8WZ82)	-0.24	-0.729
HEXIM1 (UniProt O94992)	0.15	–
UniProt Q5QNW6	–	0.352
EXOC2 (UniProt Q96KP1)	-0.0735	1.11
UniProt O60840	–	-0.278
UniProt Q16625	4.03	–
UniProt Q96Q83	3.02	–
INPPL1 (UniProt O15357)	-0.582	-0.892
DHX40 (UniProt Q8IX18)	-2.45	–
DHRS1 (UniProt Q96LJ7)	–	9.31
FOXRED1 (UniProt Q96CU9)	1.78	-2.28
STX8 (UniProt Q9UNK0)	-0.897	–
DERL1 (UniProt Q9BUN8)	1.61	-0.348
DDX31 (UniProt Q9H8H2)	1.36	–
MYL6 (UniProt P60660)	-4.61	-0.23
CCDC88A (UniProt Q3V6T2)	-0.0396	–
UniProt Q8N2C7	0.46	–
COG5 (UniProt Q9UP83)	-1.37	-0.285
CBX8 (UniProt Q9HC52)	2.42	–
SEC23A (UniProt Q15436)	-0.325	0.199
DUT (UniProt P33316)	0.4	-2.48
SH3BP5 (UniProt O60239)	-1.51	–

Target	melting temperature shift [1] [°C]	melting temperature shift [2] [°C]
UniProt Q9BVT8	3.58	0.269
CASP6 (UniProt P55212)	-0.61	-0.14
RPS20 (UniProt P60866)	1.09	-0.492
AFG3L2 (UniProt Q9Y4W6)	1.57	0.0504
NCEH1 (UniProt Q6PIU2)	0.926	-1.43
NONO (UniProt Q15233)	0.77	0.467
UniProt Q9UI47	–	-0.265
LAMC1 (UniProt P11047)	1.15	0.545
KNSTRN (UniProt Q9Y448)	-1.93	-0.252
MZT2B (UniProt Q6NZ67)	0.45	–
UniProt Q96DE5	-0.502	–
H1FX (UniProt Q92522)	0.852	0.233
UniProt Q9H115	–	0.208
GLRX3 (UniProt O76003)	-0.203	0.158
UniProt Q9P0N9	1.63	-0.802
TXNDC9 (UniProt O14530)	-0.601	0.197
DBN1 (UniProt Q16643)	–	0.844
UniProt Q96T21	–	0.0765
OXR1 (UniProt Q8N573)	-0.622	0.0739
SLC1A5 (UniProt Q15758)	4.36	–
CENPH (UniProt Q9H3R5)	-0.871	–
PAIP2 (UniProt Q9BPZ3)	-1.83	-0.756
GGCX (UniProt P38435)	0.339	-0.637
UniProt Q8N5C6	1.18	–
POMGNT1 (UniProt Q8WZA1)	-0.845	–

Target	melting temperature shift [1] [°C]	melting temperature shift [2] [°C]
RFC2 (UniProt P35250)	-0.17	-1.7
CDAN1 (UniProt Q8IWY9)	-0.306	–
MAN2A1 (UniProt Q16706)	1.11	-0.0918
DCAKD (UniProt Q8WVC6)	–	-2.81
UniProt P40306	1.83	0.639
PCBP2 (UniProt Q15366)	0.453	-0.698
MDH1 (UniProt P40925)	-1.59	0.895
UniProt Q9HCE3	0.978	–
UniProt Q8IWN7	–	-1.08
PLAUR (UniProt Q03405)	–	2.71
KRI1 (UniProt Q8N9T8)	0.659	–
TLE2 (UniProt Q04725)	–	0.0556
COPB2 (UniProt P35606)	-0.388	0.0865
SLC25A17 (UniProt O43808)	-0.0172	–
UniProt Q9Y247	–	-1.26
UniProt Q8WVV9	1.12	-0.922
UniProt A6ZKI3	-0.139	–
PSMD10 (UniProt O75832)	-0.834	-0.0186
TRIM44 (UniProt Q96DX7)	3.99	–
NT5DC2 (UniProt Q9H857)	1.34	-0.161
DNAJC2 (UniProt Q99543)	-1.21	-0.525
DUSP3 (UniProt P51452)	-0.286	0.243
NDFIP1 (UniProt Q9BT67)	–	3.46
UniProt B2RTY4	–	1.09
RBPJ (UniProt Q06330)	2.7	0.168

Target	melting temperature shift [1] [°C]	melting temperature shift [2] [°C]
PSMG2 (UniProt Q969U7)	0.159	-0.609
SRI (UniProt P30626)	-1.03	0.976
FLII (UniProt Q13045)	-0.553	-0.806
PARD3 (UniProt Q8TEW0)	-1.51	–
BPGM (UniProt P07738)	-0.709	-3.83
UniProt A6NLJ0	–	-0.484
ELAVL1 (UniProt Q15717)	0.727	-0.582
POLD2 (UniProt P49005)	-0.486	-1.65
UniProt Q9NR22	–	-0.327
UniProt P31323	-0.301	-1.36
UniProt P81133	–	0.208
AARS (UniProt P49588)	-0.768	-1.32
UniProt Q8IVV7	0.699	0.09
TKT (UniProt P29401)	-0.34	-0.43
UniProt Q9P1F3	-3.07	-0.554
UniProt Q13905	-0.352	–
UniProt Q6ZTI6	0.194	-1.57
TAMM41 (UniProt Q96BW9)	-0.289	0.0226
PAM (UniProt P19021)	0.753	–
KDELC1 (UniProt Q6UW63)	-0.245	0.244
UniProt Q6ZSR9	-0.14	-0.179
UniProt Q8WVR3	–	0.037

Repeats are few or missing, and single values can be far off.
